The results in this text go back to the supplement of paper PMC12823440, “Inhibitors supercharge kinase turnover through native proteolytic circuits” (Nature, 2025).

Amino acid sequences for entries named in this document (tags omitted). A change or cut given only in a name is not applied to a line headed by its entry.
UniProt P23458: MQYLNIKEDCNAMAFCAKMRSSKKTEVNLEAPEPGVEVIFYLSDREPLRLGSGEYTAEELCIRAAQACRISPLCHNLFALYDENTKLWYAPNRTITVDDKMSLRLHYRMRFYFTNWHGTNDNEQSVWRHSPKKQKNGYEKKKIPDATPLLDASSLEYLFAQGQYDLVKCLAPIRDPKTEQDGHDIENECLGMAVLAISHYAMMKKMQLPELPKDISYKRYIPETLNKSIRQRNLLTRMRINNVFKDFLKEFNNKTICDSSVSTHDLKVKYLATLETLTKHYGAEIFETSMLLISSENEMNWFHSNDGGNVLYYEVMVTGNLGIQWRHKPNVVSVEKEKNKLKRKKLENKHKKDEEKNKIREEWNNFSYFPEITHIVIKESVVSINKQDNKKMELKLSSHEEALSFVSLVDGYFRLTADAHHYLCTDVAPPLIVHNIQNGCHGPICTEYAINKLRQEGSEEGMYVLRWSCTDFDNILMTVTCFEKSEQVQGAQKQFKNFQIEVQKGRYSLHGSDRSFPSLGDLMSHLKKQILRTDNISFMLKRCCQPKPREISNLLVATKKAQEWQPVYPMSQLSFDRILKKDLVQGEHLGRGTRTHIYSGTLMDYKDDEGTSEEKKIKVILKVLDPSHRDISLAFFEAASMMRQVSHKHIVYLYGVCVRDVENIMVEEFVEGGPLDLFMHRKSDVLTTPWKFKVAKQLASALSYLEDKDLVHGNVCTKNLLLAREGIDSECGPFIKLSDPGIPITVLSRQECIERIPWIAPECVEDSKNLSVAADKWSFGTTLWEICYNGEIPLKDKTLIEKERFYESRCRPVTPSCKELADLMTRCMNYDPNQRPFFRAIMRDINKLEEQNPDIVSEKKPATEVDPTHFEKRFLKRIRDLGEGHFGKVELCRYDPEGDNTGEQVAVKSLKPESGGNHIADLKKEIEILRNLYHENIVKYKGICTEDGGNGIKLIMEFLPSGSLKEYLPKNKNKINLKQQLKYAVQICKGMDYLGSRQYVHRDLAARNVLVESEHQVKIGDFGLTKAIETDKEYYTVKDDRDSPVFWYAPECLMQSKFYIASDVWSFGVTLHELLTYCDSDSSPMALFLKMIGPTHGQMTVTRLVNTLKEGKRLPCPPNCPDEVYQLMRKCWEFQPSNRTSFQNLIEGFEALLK

Structures can show the parent of a compound that is named as a salt. The list shows a part of the results. Hit calls seldom repeat between salt and free forms of one compound.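 In K562 cells expressing nanoluciferase-fused kinases, luminescence was recorded at 4 h intervals between 2 and 18 h, normalized as percent of control with DMSO at 100% and a positive control at 0%. A significant (2 sigma) signal drop marks a time point as decreased. The authors' rule for a hit is not shown and takes in more than the number of time points.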

The assay concerns the target JAK1 (UniProt P23458). In words: number of time points (of 5) at which kinase-Nluc abundance scored as decreased, DMSO-normalised (count); higher = more persistent destabilization. As to conditions: K562; 2-18 h.
With `CC(C)c1ccc(CC(=O)N2CCN(c3ccc(C#N)nn3)CC2)cc1` (10 µM), the “number of time points” value was 0.

On to `C=CC(=O)N1CCC[C@@H](n2nc(C(=O)Nc3ccc(CC(=O)N(C)C)c(C)c3C)c3c(N)ncnc32)C1` (10 µM), for which the “number of time points” value was 0.

Turning to `O=C(O)CCc1ccc(NCc2cccc(Oc3ccccc3)c2)cc1` (10 µM), the “number of time points” value was found to be 0.

Regarding `CCc1c(C)sc(NC(=S)NC(=O)c2ccc(Cl)cc2)c1C(N)=O` (10 µM), the “number of time points” value is 0.

For `C=CC(=O)Nc1cccc(-n2c(=O)cc(C)c3cnc(Nc4ccc(OCCN(C)C)cc4OC)nc32)c1` (10 µM), the “number of time points” value was 0.

Take `C=C(F)C(=O)N1CCN(c2nc(OC[C@@H]3CCCN3C)nc3c2CCN(c2cccc4cccc(Cl)c24)C3)C[C@@H]1CC#N` (2.5 µM): the “number of time points” value is 0.

As for `COc1ncc(Nc2ncc([C@@H](C)N3CCN(S(C)(=O)=O)CC3)cc2-c2nc(C)nc(N)n2)cc1F` (10 µM), the “number of time points” value is 0.

On to `COc1ccc2c(c1OC)OC1c3ccc(O)cc3OCC21` (centres undefined) [Methylnissolin] (10 µM), for which the “number of time points” value amounted to 0.

Consider `O=C(CO)N1CCC(c2n[nH]c(-c3ccc(Cl)cc3)c2-c2ccncn2)CC1` (10 µM), for which the “number of time points” value worked out at 0.

Regarding `O=C1NC(=O)/C(=C/c2ccc(-c3ccc(F)cc3O)o2)S1` (10 µM), the “number of time points” value came out at 0.

On to `Cc1cc(C(C)Nc2ccccc2)c2nc(N3CCOCC3)cc(=O)n2c1` (centres undefined) (10 µM), for which the “number of time points” value came out at 0.

As for `Cc1cccc(-c2[nH]ncc2-c2ccc3ncccc3n2)n1` (10 µM), the “number of time points” value is 0.

As to `Cc1cc2ncc(-c3ccccc3)nc2cc1C` (10 µM), the “number of time points” value amounted to 0.

Regarding `COc1cc(C(=O)N2CCC(N3CCN(C)CC3)CC2)ccc1Nc1ncc2c(n1)N(C)c1ccccc1C(=O)N2C` (10 µM), the “number of time points” value was 0.

Consider `COc1cnccc1Nc1nc(-c2nn(Cc3c(F)cc(OCCO)cc3F)c3ccccc23)ncc1OC` (10 µM), for which the “number of time points” value amounted to 0.

As to `C[C@@H]1COCCN1c1cc(C2([S@](C)(=N)=O)CC2)nc(-c2cc[nH]c3nccc2-3)n1` [Ceralasertib] (2.5 µM), the “number of time points” value stood at 0.

Turning to `CC(C)C[C@H](NC(=O)[C@H](CCCCN)NC(=O)[C@H](CO)NC(=O)[C@@H](N)CC(C)C)C(N)=O` [LSKL, Inhibitor of Thrombospondin (TSP-1) (TFA)] (10 µM), the “number of time points” value amounted to 0.

For the molecule `Cn1cc(-c2cc3c(N4CCN(c5ncc([C@@](C)(N)c6ccc(F)cc6)cn5)CC4)ncnn3c2)cn1` [Avapritinib] (2.5 µM), the “number of time points” value came out at 0.

With `CC(C)(C)C(=O)N1N=CC[C@H]1c1ccccc1` (10 µM), the “number of time points” value was 0.

For the molecule `N#Cc1ccc(-c2c(-c3ncn[nH]3)sc(N3CCOCC3)c2C#N)c(F)c1` (10 µM), the “number of time points” value came to 0.

In the case of `O=[N+]([O-])c1ccc(Sc2cccc[n+]2[O-])c2nonc12` (2.5 µM), the “number of time points” value is 0.

As for `Nc1nc2cc(-c3ccc4ncc(C(=O)N5CCOCC5)n4c3)ccc2o1` [Serabelisib] (10 µM), the “number of time points” value came to 0.

Turning to `NCCCCCCNS(=O)(=O)c1cccc2c(Cl)cccc12` [W-7 (hydrochloride)] (10 µM), the “number of time points” value turned out to be 0.

As for `COc1ccc(CCNc2ncc3c(=O)n(-c4cccc(F)c4)c(=O)[nH]c3n2)cc1OC` (2 µM), the “number of time points” value was found to be 0.

Turning to `CCc1ccc(C(=O)COc2ccc(CC3SC(=O)NC3=O)cc2)nc1` (centres undefined) (10 µM), the “number of time points” value is 0.

In the case of `Nc1cc(C(F)F)c(-c2nc(N3C4CCC3COC4)nc(N3C4CCC3COC4)n2)cn1` (2.5 µM), the “number of time points” value turned out to be 0.

Regarding `CC(C)(C)c1cc(C(c2cc3c(cc2O)OCO3)N2CCOCC2)cc(C(C)(C)C)c1O` (centres undefined) (2.5 µM), the “number of time points” value turned out to be 0.

Consider `N#C/C(=C(/N)Sc1ccc(N)cc1)c1ccccc1C(F)(F)F` (10 µM), for which the “number of time points” value stood at 0.

Regarding `CC(C)c1cnn2c(NCc3ccccc3-n3cccn3)nc(OC3CCCNC3)nc12` (centres undefined) (2.5 µM), the “number of time points” value stood at 0.

For `COc1cc(C(C)=O)cc(OC)c1O` [Acetosyringone] (10 µM), the “number of time points” value stood at 0.

In the case of `O=S(=O)(c1cccc2cnccc12)N1CCNCC1` (10 µM), the “number of time points” value was 0.

As to `CN1C(=O)NC(Cc2c[nH]c3c(Cl)cccc23)C1=O` (racemic) [Necrostatin 2 (racemate)] (10 µM), the “number of time points” value turned out to be 0.

On to `COc1ccc2c(c1)c(C1=C(c3c[nH]c4ccccc34)C(=O)NC1=O)cn2CCCN(C)C` (10 µM), for which the “number of time points” value was 0.

For the molecule `COc1cc(-c2cc(-c3cc(OC)c(OC)c(OC)c3)cc(C(F)P(=O)(OCOC(=O)C(C)(C)C)OCOC(=O)C(C)(C)C)c2)cc(OC)c1OC` (centres undefined) [Stafia-1-dipivaloyloxymethyl ester] (2.5 µM), the “number of time points” value stood at 0.
